Data as given in publication PMC5648759.
Results are given in words; binding and its absence hold for the method and conditions named. Binding seen in cells or lysates may run through a third protein. Some entries that bind do so weakly or less than the wild type. Sequences can lack the tags named with a protein.

By UniProt entry, the sequences of proteins in these tests, tags left out.
UniProt P05549: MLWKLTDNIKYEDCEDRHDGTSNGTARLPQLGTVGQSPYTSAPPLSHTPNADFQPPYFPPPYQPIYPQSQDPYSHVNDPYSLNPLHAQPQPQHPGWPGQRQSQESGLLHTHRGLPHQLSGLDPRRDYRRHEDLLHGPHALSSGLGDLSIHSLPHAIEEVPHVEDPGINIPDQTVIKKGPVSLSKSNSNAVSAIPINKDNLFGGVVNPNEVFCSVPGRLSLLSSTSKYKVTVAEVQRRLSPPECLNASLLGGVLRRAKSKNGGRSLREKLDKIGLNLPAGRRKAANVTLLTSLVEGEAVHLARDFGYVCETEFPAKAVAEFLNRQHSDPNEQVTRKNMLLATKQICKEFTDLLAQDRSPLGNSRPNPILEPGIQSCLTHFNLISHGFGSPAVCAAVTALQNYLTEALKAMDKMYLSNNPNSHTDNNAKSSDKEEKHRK
UniProt P43268: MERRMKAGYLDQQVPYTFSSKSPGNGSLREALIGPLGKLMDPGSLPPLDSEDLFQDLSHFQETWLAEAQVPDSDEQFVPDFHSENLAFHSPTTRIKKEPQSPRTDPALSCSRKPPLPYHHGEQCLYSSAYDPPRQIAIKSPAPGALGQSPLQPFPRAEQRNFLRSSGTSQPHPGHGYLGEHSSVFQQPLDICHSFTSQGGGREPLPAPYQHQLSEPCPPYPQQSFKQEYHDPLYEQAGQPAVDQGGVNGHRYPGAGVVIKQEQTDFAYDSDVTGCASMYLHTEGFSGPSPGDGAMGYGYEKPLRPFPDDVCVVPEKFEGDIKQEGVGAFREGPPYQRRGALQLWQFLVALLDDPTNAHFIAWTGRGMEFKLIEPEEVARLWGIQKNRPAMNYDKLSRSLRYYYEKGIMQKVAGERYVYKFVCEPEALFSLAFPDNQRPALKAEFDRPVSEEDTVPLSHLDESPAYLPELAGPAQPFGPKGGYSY
UniProt P08047: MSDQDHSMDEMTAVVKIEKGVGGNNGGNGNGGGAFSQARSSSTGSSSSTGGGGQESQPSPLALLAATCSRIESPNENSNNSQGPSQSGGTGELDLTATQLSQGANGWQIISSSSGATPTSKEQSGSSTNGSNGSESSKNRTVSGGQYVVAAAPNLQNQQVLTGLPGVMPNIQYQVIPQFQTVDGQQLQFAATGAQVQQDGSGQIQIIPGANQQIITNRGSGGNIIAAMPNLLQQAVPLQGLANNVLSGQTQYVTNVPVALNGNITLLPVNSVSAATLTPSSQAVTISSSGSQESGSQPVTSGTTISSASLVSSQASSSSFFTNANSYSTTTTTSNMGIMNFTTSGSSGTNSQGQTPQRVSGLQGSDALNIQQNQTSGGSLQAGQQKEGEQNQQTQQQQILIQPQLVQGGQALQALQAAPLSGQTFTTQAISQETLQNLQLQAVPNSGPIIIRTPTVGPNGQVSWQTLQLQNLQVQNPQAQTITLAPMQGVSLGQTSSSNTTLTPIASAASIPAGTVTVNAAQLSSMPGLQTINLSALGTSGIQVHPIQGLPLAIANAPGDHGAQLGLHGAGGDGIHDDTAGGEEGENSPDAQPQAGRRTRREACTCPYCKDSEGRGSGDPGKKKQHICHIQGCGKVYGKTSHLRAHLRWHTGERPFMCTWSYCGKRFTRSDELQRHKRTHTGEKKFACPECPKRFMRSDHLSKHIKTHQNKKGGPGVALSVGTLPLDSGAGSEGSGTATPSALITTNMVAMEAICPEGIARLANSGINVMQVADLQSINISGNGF

T1: His-tagged human TFPI-2 (human) (UniProt P48307)
T1 sequence: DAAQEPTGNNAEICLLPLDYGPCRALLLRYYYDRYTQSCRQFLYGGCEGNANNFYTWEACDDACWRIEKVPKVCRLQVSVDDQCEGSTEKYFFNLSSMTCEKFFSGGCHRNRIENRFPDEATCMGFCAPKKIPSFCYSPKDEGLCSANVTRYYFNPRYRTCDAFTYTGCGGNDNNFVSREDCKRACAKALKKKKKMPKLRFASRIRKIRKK


Tests used:
[1] = target: T1, His-tagged human TFPI-2 (human); assay: co-IP; Protein A beads conjugated with TFPI-2 antibodies or normal IgG; nuclear extracts of MDA231/TFPI-2 cells; on ice for 4 hrs; western blots with anti-TFPI-2, anti-PEA3, anti-AP-2α and anti-SP1 antibodies
[2] = target: AP-2α (human (endogenous in MDA231)) (UniProt P05549); assay: co-IP; reciprocal: Protein A beads conjugated with AP-2α antibodies or normal IgG; nuclear extracts of MDA231/TFPI-2 (and MDA231/con) cells; on ice for 4 hrs; western blots

Row | Molecule | binding [1] | binding [2]
1 | AP-2α (from UniProt P05549 1-437) | binds | –
2 | PEA3 (from UniProt P43268 1-484) | no binding | –
3 | SP1 (from UniProt P08047 1-785) | no binding | –
4 | His-tagged human TFPI-2 (protein, UniProt P48307 23-233) DAAQEPTGNNAEICLLPLDYGPCRALLLRYYYDRYTQSCRQFLYGGCEGNANNFYTWEACDDACWRIEKVPKVCRLQVSVDDQCEGSTEKYFFNLSSMTCEKFFSGGCHRNRIENRFPDEATCMGFCAPKKIPSFCYSPKDEGLCSANVTRYYFNPRYRTCDAFTYTGCGGNDNNFVSREDCKRACAKALKKKKKMPKLRFASRIRKIRKK | – | binds
